Experimental data: PubChem BioAssay AID1671195 (Yale University, 2021)
Here is an unselected part of about 22,000 reagents. About 1,510 of all reagents (6.9%) count as active. 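Active includes knockdowns raising or lowering LDL uptake; positive z-scores mean more uptake, negative mean less.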 A number with no mark means an inactive call. No sequences are given here.

- Screen: 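Knockdowns that increase or decrease uptake of fluorescent LDL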 (primary screen)
- Cell system: human Huh7 hepatoma cells
- Knock-down reagent: siRNA pool against human genes, 18 nM
- Timing: about 2 to 2.5 days of knockdown, then 8 h LDL uptake
- Challenge: DiI-labelled LDL at 30 µg/ml for 8 h, in lipoprotein-deficient serum medium
- Measured: 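Per-cell DiI-LDL intensity by automated imaging; well means scaled to the plate median and given as a robust z-score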
- Reading the numbers: robust z-score: higher = more LDL uptake after knockdown
- Rule for the call: 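a gene counts as active if at least two replicate z-scores exceed ±2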

Target gene | robust z-score, replicate 1 | robust z-score, replicate 2 | robust z-score, replicate 3
PDXDC1 (pyridoxal dependent decarboxylase domain containing 1) | -0.998 | 0.586 | -0.805
H2BC11 (H2B clustered histone 11) | 0.322 | -1.23 | -1.49
ZNF512B (zinc finger protein 512B) | -1.64 | -1.51 | -1.26
OVOL2 (ovo like zinc finger 2) | -1.77 | -1.79 | -1.77
CFAP298 (cilia and flagella associated protein 298) | -1.34 | -0.243 | -0.299
GADD45A (growth arrest and DNA damage inducible alpha) | 0.468 | -1.36 | -0.151
DSTYK (dual serine/threonine and tyrosine protein kinase) | 0.652 | 1.37 | 0.722
ADAMTS5 (ADAM metallopeptidase with thrombospondin type 1 motif 5) | -1.6 | -1.31 | -1.46
PCDH7 (protocadherin 7) | 0.211 | 0.47 | 0.485
IRS2 (insulin receptor substrate 2) | 1.04 | -0.413 | -0.166
RBM28 (RNA binding motif protein 28) | -1.28 | -1.7 | -1.98
MCPH1 (microcephalin 1) | 0.485 | 0.607 | 0.333
CSGALNACT1 (chondroitin sulfate N-acetylgalactosaminyltransferase 1) | 1.37 | 0.519 | 1.95
CPM (carboxypeptidase M) | -1.15 | -1.33 | -0.667
LOC442654 (retired record) | -0.199 | -0.331 | -0.179
ADCK2 (aarF domain containing kinase 2) | -0.352 | -0.647 | -1.03
FAM241A (family with sequence similarity 241 member A) | 1.11 | 0.772 | 1.08
CELSR2 (cadherin EGF LAG seven-pass G-type receptor 2) | 0.387 | 0.314 | -0.013
IGFBP2 (insulin like growth factor binding protein 2) | -0.98 | -1.59 | -1.32
KRT33A (keratin 33A) | 0.299 | -1.31 | -0.431
PLCXD2 | -0.548 | -1.28 | -1.21
NCOR2 (nuclear receptor corepressor 2) | 1.58 | 0.319 | 1.42
FOXF2 (forkhead box F2) | -1.11 | -1.46 | -1.34
MMRN1 (multimerin 1) | -0.866 | -0.00171 | -0.0108
ORC3 (origin recognition complex subunit 3) | 4.65 (active) | 3.04 | 1.38
CLDN4 (claudin 4) | 0.485 | 0.448 | 0.21
PDIA3 (protein disulfide isomerase family A member 3) | 0.934 | -0.15 | 0.406
GOLGA6L4 (golgin A6 family like 4) | -1.11 | -0.906 | -0.747
ASCC2 (activating signal cointegrator 1 complex subunit 2) | -0.741 | -0.723 | -0.493
GRP (gastrin releasing peptide) | -0.278 | 0.424 | -0.0743
IL23A (interleukin 23 subunit alpha) | -2.08 | -1.39 | -0.492
LIM2 (lens intrinsic membrane protein 2) | 0.224 | 1.18 | 0.79
ATP11B (ATPase phospholipid transporting 11B (putative)) | 0.105 | -0.58 | 0.0938
PRR23E (PRR23 family member E) | 0.0863 | 0.639 | 0.303
ZNF181 (zinc finger protein 181) | -1.31 | -1.45 | -1.26
RCL1 (RNA terminal phosphate cyclase like 1) | 0.225 | 0.251 | -0.125
CGA (glycoprotein hormones, alpha polypeptide) | -1.15 | -0.777 | -0.469
LOC441809 (retired record) | -0.159 | 0.275 | 0.121
HMGN4 (high mobility group nucleosomal binding domain 4) | -0.955 | -0.301 | -0.308
VPS37A (VPS37A subunit of ESCRT-I) | -0.453 | 0.227 | 0.0338
TTC23 (tetratricopeptide repeat domain 23) | -0.0322 | 0.431 | 0.0533
BORCS5 (BLOC-1 related complex subunit 5) | -0.117 | 0.0385 | 0.836
ESRP2 (epithelial splicing regulatory protein 2) | -0.712 | -0.44 | -0.0879
RRBP1 (ribosome binding protein 1) | 1.88 | 0.286 | 0.412
DPH1 (diphthamide biosynthesis 1) | 1.83 | -0.556 | 1.4
OBP2A (odorant binding protein 2A) | 2.55 (active) | 2.13 | 2.72
MSC (musculin) | 0.0564 | 1.18 | 0.372
METTL27 (methyltransferase like 27) | -1.87 (active) | -2.11 | -1.6
SNAP47 (synaptosome associated protein 47) | -0.662 | 0.604 | 0.963
ZDHHC14 (zDHHC palmitoyltransferase 14) | 0.724 | 0.858 | 0.67
SH3KBP1 (SH3 domain containing kinase binding protein 1) | -2.23 (active) | -1.9 | -1.87
CAST (calpastatin) | -0.373 | -0.493 | -1.31
EPHA7 (EPH receptor A7) | -0.0977 | 0.582 | -0.825
P2RY6 (pyrimidinergic receptor P2Y6) | -1.4 | -0.89 | -1.16
SUSD6 (sushi domain containing 6) | 1.23 | -0.481 | -0.364
FBXO42 (F-box protein 42) | -1.02 | -0.467 | -0.0775
KRT80 (keratin 80) | -0.795 | -0.655 | -0.99
SLC22A17 | -0.12 | -0.859 | -1.01
PPP3CA (protein phosphatase 3 catalytic subunit alpha) | 0.275 | 1.78 | -0.807
DHX57 (DExH-box helicase 57) | 0.0858 | 0.877 | 0.587
LOC441789 (retired record) | 1.59 (active) | 2.15 | 2.66
MMP24 (matrix metallopeptidase 24) | -1.63 | -1.51 | -0.248
LOC440985 (retired record) | -0.156 | -0.659 | -0.644
MAU2 | -0.275 | -0.48 | -0.134
FAM90A1 (family with sequence similarity 90 member A1) | -0.475 | 0.551 | -0.313
RECQL5 (RecQ like helicase 5) | -1.66 | -0.921 | -1.7
HSD3B1 | 0.662 | -0.637 | 0.368
GALNT15 (polypeptide N-acetylgalactosaminyltransferase 15) | -0.0279 | -0.194 | 0.162
MAGEA5P (MAGE family member A5, pseudogene) | -1.05 | 0.128 | -0.671
CD9 (CD9 molecule) | 1.36 | 1.02 | 0.489
MROH9 (maestro heat like repeat family member 9) | 0.642 | 1.08 | 0.767
CERS2 (ceramide synthase 2) | -1.37 | 1.5 | -0.186
RPL23AP96 (ribosomal protein L23a pseudogene 96) | -0.224 | -0.894 | -0.816
PRIMPOL (primase and DNA directed polymerase) | 1.61 | 1.96 | 1.57
CENPS (centromere protein S) | -0.425 | -0.277 | -0.862
ALKBH3 (alkB homolog 3, alpha-ketoglutarate dependent dioxygenase) | -0.363 | -0.569 | -0.66
INTU (inturned planar cell polarity protein) | 1.72 (active) | 2.29 | 2
STON2 (stonin 2) | -0.272 | 0.696 | -0.103
HEXB (hexosaminidase subunit beta) | 1.52 | 1.81 | 1.53
C11orf52 (chromosome 11 open reading frame 52) | -0.959 | -0.644 | -0.932
POLR2I (RNA polymerase II subunit I) | -0.866 | -1.43 | -1.28
LOC441115 (retired record) | 0.147 | 0.0635 | 0.556
ADAMTS17 (ADAM metallopeptidase with thrombospondin type 1 motif 17) | 0.608 | 0.552 | 0.545
ZNF215 (zinc finger protein 215) | 0.817 | 1.48 | 0.176
NECAP2 (NECAP endocytosis associated 2) | -0.0909 | 0.87 | -0.0893
LOC390020 (retired record) | -0.0588 | -0.218 | -0.49
MYT1L (myelin transcription factor 1 like) | 0.502 | 0.358 | 0.246

Reformatted: 13 of the entries above.
| Target gene | robust z-score, replicate 1 | robust z-score, replicate 2 | robust z-score, replicate 3 |
| --- | --- | --- | --- |
| KRT33A (keratin 33A) | 0.299 | -1.31 | -0.431 |
| PLCXD2 | -0.548 | -1.28 | -1.21 |
| NCOR2 (nuclear receptor corepressor 2) | 1.58 | 0.319 | 1.42 |
| FOXF2 (forkhead box F2) | -1.11 | -1.46 | -1.34 |
| MMRN1 (multimerin 1) | -0.866 | -0.00171 | -0.0108 |
| ORC3 (origin recognition complex subunit 3) | 4.65 (active) | 3.04 | 1.38 |
| CLDN4 (claudin 4) | 0.485 | 0.448 | 0.21 |
| PDIA3 (protein disulfide isomerase family A member 3) | 0.934 | -0.15 | 0.406 |
| GOLGA6L4 (golgin A6 family like 4) | -1.11 | -0.906 | -0.747 |
| ASCC2 (activating signal cointegrator 1 complex subunit 2) | -0.741 | -0.723 | -0.493 |
| GRP (gastrin releasing peptide) | -0.278 | 0.424 | -0.0743 |
| IL23A (interleukin 23 subunit alpha) | -2.08 | -1.39 | -0.492 |
| LIM2 (lens intrinsic membrane protein 2) | 0.224 | 1.18 | 0.79 |
